{"source": "patent US20260240837A1", "about": "“Compositions Reducing the Expression or Activity of C1 GALT1 for Treating Ewing Sarcoma” (University of Massachusetts Medical School, priority 2023, published 2026)", "key": {"[1]": {"tested_on": "EWSR1::FLI1", "assay": "qRT-PCR of EWSR1::FLI1 expression in A673 cells", "type": "cell-based, human", "details": "ITZ 0, 20, 40, 60, 80, 100 nM for 72 hours, FIG. 5A", "experimental": "Total RNA was isolated from cells using Trizol (Invitrogen, Cat #15596). cDNA was synthesized using Proto Script II reverse transcription kit (New England Biolabs (NEB), Ipswich, MA, Cat #E6560) and real-time PCR reactions were performed using Quant Studio 3 (Applied Biosystems by Thermo Fisher Scientific) using primer sequences listed in Table 2. Gene expression was normalized to that of GAPDH. A control without reverse transcription (no-RT control) was carried out in parallel to rule out the possibility of DNA contamination. The experiments were performed three independent times.\nIn the experiment in FIG. 5D, cells were treated with 10 μM ketoconazole (Sigma, Cat #PHR1385; CAS No. 65277-42-1) for 72 hours. Dimethyl sulfoxide (DMSO) was used as vehicle control."}, "[2]": {"tested_on": "EWSR1::FLI1", "assay": "Immunoblot of EWSR1::FLI1 protein levels (anti-FLI1 antibody) in A673 cells", "type": "cell-based, human", "details": "ITZ 0, 20, 40, 60, 80, 100 nM for 72 hours, FIG. 5B", "experimental": "Cells extracts were prepared in radioimmunoprecipitation assay (RIPA) buffer (1% Triton-X100, 0.1% sodium dodecyl sulfate (SDS), 0.5% deoxycholic acid, 20 mM tris(hydroxymethyl)aminomethane (Tris), pH 7.5, 10% glycerol) containing 1× complete ethylenediaminetetraacetic acid (EDTA)-free protease inhibitor cocktail (Roche, Basel, Switzerland, Cat #11873580001) and 1 mM phenylmethylsulfonyl fluoride (PMSF). For the immunoblot in FIG. 7L, cells expressing FLAG-SMO (wild-type and mutants) were treated with 10 μM MG132 (Selleck Chemicals, Houston, TX, Cat #S2619; CAS No. 1211877-36-9) for 12 hours or 100 nM bafilomycin A1 (Selleck Chemicals, Cat #S1413; CAS No. 88899-55-2) for 6 hours. […]"}}, "note": "At least one structure is not confirmed: it was looked up by name or label, or the drawing left a doubt.", "data": [{"smiles": "CCC(C)n1ncn(-c2ccc(N3CCN(c4ccc(OCC5COC(Cn6cncn6)(c6ccc(Cl)cc6Cl)O5)cc4)CC3)cc2)c1=O", "note": "(centres unmarked) [ITZ, itraconazole]", "values": [{"measurement": "EWSR1::FLI1 mRNA levels", "setting": "[1]", "result": "dose-dependent reduction"}, {"measurement": "EWSR1::FLI1 protein levels", "setting": "[2]", "result": "dose-dependent reduction"}]}]}
